Assay results reported in the supplement of paper PMC12823440, “Inhibitors supercharge kinase turnover through native proteolytic circuits” (Nature, 2025).
Where a name gives a salt, the structure may show the parent alone. The list shows a part of the results. Hit calls seldom repeat between salt and free forms of one compound.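 Kinases, fused to nanoluciferase, were expressed in K562 cells; luminescence was measured every 4 h from 2 to 18 h as percent of control (DMSO = 100%, positive control = 0%). A time point is decreased if signal falls significantly (2 sigma). Hits were called by the authors by a rule that is not shown; the count of time points alone does not decide it.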

Protein sequences, listed by entry. Tags and fused reporters are not part of them. Lines headed by an entry give the natural chain unless they say otherwise; changes in a name come on top.
UniProt P28482, whole entry: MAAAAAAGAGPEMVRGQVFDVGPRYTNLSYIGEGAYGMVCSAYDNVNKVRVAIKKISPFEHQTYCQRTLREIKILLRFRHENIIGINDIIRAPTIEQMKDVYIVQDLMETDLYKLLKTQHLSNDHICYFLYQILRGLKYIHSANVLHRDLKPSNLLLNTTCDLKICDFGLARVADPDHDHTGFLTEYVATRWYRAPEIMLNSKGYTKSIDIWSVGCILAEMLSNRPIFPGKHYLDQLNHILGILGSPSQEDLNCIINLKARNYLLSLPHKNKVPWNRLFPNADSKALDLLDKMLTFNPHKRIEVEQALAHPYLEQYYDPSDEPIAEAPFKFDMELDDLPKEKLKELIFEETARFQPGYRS
UniProt P31152, whole entry: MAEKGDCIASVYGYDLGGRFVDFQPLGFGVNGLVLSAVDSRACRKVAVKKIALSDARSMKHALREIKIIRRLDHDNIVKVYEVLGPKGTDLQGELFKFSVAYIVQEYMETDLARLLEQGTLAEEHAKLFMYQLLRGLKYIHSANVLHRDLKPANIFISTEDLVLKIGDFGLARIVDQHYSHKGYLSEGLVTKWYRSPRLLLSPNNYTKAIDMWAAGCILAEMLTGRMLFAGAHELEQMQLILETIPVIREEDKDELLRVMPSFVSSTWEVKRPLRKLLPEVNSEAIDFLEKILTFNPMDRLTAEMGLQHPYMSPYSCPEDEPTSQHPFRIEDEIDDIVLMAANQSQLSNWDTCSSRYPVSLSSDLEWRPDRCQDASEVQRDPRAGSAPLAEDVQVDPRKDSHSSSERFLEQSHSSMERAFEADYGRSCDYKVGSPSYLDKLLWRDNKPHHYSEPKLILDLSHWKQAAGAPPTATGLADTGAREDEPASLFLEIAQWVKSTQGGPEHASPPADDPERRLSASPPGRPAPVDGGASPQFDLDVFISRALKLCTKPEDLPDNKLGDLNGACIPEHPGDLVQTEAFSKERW
UniProt P49137, whole entry, looked up: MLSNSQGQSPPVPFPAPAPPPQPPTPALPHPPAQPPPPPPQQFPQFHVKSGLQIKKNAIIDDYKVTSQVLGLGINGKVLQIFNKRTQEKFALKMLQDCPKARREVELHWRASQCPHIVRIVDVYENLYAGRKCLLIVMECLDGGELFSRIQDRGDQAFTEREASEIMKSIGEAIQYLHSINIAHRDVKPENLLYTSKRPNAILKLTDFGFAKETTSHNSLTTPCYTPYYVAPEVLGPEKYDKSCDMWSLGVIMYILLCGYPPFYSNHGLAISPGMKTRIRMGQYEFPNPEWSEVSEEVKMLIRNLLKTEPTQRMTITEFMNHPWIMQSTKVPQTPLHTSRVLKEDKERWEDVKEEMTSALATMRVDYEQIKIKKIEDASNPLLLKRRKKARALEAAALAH
UniProt Q9BUB5: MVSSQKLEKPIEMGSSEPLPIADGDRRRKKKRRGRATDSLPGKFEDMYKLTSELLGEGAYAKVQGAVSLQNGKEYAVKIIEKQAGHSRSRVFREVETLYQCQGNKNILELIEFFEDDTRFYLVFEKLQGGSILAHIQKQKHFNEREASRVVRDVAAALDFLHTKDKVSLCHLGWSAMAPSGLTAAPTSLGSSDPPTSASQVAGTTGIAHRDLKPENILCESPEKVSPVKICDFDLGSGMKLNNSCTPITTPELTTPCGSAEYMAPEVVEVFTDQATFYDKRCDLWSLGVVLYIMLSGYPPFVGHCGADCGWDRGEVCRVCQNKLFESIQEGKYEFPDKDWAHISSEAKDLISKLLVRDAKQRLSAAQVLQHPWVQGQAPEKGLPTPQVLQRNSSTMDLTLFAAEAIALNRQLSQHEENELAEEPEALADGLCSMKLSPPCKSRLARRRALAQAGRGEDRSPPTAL
UniProt Q16620, whole entry, looked up: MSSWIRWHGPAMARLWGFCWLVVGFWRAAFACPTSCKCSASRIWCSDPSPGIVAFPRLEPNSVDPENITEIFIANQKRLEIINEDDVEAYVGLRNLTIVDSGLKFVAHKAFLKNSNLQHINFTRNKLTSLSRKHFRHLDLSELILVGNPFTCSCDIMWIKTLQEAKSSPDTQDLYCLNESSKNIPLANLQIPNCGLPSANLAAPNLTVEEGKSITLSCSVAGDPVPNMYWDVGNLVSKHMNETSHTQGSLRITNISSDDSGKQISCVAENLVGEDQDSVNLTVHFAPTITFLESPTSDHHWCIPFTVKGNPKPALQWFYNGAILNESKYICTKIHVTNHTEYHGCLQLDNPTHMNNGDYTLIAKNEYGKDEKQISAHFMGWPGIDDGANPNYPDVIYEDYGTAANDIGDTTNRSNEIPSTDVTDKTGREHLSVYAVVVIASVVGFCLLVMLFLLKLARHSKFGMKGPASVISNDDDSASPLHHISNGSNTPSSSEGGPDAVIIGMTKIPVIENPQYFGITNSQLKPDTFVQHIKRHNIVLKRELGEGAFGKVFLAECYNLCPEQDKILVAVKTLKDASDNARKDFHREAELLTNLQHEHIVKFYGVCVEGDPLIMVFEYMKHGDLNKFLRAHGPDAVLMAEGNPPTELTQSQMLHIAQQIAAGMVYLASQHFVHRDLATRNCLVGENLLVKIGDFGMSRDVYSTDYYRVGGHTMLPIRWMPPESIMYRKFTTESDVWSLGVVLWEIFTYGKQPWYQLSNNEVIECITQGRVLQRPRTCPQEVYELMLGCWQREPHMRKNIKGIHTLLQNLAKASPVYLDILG
UniProt Q16288, whole entry, looked up: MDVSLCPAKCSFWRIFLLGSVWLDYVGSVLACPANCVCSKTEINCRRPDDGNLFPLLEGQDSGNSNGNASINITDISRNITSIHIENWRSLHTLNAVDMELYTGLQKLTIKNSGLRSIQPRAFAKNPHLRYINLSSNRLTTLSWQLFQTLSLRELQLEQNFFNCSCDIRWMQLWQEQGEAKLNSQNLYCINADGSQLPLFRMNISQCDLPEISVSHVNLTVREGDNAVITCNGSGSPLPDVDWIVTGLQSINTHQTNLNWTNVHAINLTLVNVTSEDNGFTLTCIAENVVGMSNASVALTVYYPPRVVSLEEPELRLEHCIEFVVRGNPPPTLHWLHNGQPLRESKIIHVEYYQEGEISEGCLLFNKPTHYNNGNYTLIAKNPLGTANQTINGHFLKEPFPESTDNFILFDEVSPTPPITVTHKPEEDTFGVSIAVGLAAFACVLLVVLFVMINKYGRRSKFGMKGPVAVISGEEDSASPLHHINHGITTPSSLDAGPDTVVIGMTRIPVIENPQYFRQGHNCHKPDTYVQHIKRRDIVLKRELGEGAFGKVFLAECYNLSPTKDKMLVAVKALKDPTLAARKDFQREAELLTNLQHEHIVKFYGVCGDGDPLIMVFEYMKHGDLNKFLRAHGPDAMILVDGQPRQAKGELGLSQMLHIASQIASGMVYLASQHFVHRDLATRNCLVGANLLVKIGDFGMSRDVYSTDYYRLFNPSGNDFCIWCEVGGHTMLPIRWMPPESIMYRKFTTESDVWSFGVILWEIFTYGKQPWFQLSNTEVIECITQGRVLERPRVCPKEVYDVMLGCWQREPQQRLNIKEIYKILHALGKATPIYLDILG
UniProt O96013: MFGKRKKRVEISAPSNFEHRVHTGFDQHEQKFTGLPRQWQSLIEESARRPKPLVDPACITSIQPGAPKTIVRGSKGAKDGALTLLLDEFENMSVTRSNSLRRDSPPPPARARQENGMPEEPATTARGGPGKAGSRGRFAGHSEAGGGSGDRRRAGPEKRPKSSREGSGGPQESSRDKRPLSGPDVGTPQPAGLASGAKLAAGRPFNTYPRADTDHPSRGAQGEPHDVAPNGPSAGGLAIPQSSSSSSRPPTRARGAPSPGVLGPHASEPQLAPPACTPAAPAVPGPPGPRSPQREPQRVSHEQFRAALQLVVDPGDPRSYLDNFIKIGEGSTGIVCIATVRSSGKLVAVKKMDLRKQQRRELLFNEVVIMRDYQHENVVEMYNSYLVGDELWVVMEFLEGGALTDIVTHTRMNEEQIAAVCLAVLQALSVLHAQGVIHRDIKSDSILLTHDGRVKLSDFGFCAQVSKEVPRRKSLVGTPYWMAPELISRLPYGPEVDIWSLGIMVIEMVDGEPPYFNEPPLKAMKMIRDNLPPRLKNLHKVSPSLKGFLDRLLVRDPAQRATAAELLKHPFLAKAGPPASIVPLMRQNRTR
UniProt Q96KB5: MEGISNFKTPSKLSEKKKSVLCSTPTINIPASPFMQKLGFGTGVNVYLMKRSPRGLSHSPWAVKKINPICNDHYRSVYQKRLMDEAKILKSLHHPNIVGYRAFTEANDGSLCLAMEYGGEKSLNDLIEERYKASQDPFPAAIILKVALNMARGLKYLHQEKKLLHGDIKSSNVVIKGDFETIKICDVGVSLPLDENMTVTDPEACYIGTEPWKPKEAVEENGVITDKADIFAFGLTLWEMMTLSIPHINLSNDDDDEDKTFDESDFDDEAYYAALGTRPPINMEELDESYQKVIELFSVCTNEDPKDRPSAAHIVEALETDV
UniProt P09619, whole entry: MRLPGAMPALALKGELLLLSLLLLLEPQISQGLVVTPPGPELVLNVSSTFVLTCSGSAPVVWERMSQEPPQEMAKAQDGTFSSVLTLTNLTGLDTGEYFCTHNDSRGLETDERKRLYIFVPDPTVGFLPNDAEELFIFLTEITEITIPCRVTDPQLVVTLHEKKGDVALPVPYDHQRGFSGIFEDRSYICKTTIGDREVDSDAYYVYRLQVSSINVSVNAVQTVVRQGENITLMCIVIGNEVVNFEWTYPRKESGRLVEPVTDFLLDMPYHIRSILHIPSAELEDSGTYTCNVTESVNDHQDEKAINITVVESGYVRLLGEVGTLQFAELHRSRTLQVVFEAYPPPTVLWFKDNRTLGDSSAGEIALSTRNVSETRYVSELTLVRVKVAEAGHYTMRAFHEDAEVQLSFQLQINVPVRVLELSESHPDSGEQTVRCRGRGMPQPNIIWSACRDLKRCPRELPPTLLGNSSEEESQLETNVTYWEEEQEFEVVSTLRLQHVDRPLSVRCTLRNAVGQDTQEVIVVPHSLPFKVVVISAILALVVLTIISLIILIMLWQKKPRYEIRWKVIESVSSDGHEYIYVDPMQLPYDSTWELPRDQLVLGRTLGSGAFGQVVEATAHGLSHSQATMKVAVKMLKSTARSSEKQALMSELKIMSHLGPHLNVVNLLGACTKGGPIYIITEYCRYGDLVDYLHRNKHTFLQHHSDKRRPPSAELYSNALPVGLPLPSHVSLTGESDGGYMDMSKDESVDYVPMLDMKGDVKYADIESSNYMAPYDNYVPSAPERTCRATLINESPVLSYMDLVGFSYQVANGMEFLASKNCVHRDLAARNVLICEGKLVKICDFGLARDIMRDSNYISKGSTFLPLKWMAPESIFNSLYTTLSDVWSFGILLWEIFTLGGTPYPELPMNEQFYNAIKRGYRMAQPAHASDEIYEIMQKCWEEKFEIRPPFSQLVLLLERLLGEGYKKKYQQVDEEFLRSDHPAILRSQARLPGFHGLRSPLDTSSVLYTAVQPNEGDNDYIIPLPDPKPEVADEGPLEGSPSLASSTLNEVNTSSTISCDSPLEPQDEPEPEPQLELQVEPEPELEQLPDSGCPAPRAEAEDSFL
UniProt Q15118, whole entry, looked up: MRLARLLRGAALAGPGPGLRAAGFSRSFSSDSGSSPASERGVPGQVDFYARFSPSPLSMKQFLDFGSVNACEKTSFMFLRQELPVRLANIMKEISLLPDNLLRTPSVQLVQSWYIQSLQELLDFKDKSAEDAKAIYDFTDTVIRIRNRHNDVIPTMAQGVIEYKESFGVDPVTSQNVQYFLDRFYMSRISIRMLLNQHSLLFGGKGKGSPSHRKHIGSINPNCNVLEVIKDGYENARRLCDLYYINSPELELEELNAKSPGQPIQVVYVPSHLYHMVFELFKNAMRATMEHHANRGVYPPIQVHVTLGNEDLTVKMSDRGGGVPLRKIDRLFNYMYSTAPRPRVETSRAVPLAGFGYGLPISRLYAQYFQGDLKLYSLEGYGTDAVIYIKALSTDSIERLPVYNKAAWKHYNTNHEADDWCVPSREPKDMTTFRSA

Key:
Assay in all cases: kinase-Nluc reporter destabilization hit call (1 = scored as downregulated) (binary); higher = compound decreases kinase abundance
Settings in all cases: K562; 2-18 h
MAPK1 = MAPK1 (UniProt P28482)
MAPK4 = MAPK4 (UniProt P31152)
MAPKAPK2 = MAPKAPK2 (UniProt P49137)
MKNK1 = MKNK1 (UniProt Q9BUB5)
NTRK2 = NTRK2 (UniProt Q16620)
NTRK3 = NTRK3 (UniProt Q16288)
PAK4 = PAK4 (UniProt O96013)
PBK = PBK (UniProt Q96KB5)
PDGFRB = PDGFRB (UniProt P09619)
PDK1 = PDK1 (UniProt Q15118)

Measured: kinase-Nluc reporter destabilization hit call

O=C(Nc1nc2ccccc2[nH]1)c1cccc(-n2cccc2)c1 (10 µM)
inactive: MAPK1 = 0 | MAPK4 = 0 | MAPKAPK2 = 0 | MKNK1 = 0 | NTRK2 = 0 | NTRK3 = 0 | PAK4 = 0 | PBK 0 | PDGFRB 0 | PDK1 = 0

COc1c(NC(=O)C(=O)c2ccc(OCCN3CCOCC3)c3ccccc23)cc(C(C)(C)C)cc1NS(C)(=O)=O (2.5 µM)
inactive: MAPK1 = 0 | MAPK4 = 0 | MAPKAPK2 = 0 | MKNK1 = 0 | NTRK2 = 0 | NTRK3 = 0 | PAK4 = 0 | PBK 0 | PDGFRB 0 | PDK1 = 0

COc1cc(N2CCC(N3CCN(C)CC3)CC2)ccc1Nc1ncc(Cl)c(Nc2ccccc2P(C)(C)=O)n1 [Brigatinib] (2 µM)
inactive: MAPK1 = 0 | MAPK4 = 0 | MAPKAPK2 = 0 | MKNK1 = 0 | NTRK2 = 0 | NTRK3 = 0 | PAK4 = 0 | PBK 0 | PDGFRB 0 | PDK1 = 0

COc1cc([N+](=O)[O-])ccc1S(=O)(=O)N1C[C@@H](CN2CCN(c3ccccn3)CC2)[C@H](c2cccc(F)c2)C1 (relative stereo) (10 µM)
inactive: MAPK1 = 0 | MAPK4 = 0 | MAPKAPK2 = 0 | MKNK1 = 0 | NTRK2 = 0 | NTRK3 = 0 | PAK4 = 0 | PBK 0 | PDGFRB 0 | PDK1 = 0

C[C@@]1(O)CCC[C@H]1n1c(=O)c(C(F)F)cc2cnc(NC3CCN(S(C)(=O)=O)CC3)nc21 (2.5 µM)
inactive: MAPK1 = 0 | MAPK4 = 0 | MAPKAPK2 = 0 | MKNK1 = 0 | NTRK2 = 0 | NTRK3 = 0 | PAK4 = 0 | PBK 0 | PDGFRB 0 | PDK1 = 0

COc1ccc2[nH]cc(/C=C3\C(=O)Nc4ccc(NC(=O)CCN5CCCCC5)cc43)c2c1 (2.5 µM)
inactive: MAPK1 = 0 | MAPK4 = 0 | MAPKAPK2 = 0 | MKNK1 = 0 | NTRK2 = 0 | NTRK3 = 0 | PAK4 = 0 | PBK 0 | PDGFRB 0 | PDK1 = 0

O=C(Nc1ccc(F)cc1F)[C@H](NC(=S)Nc1cc(C(F)(F)F)cc(C(F)(F)F)c1)c1ccccc1 (2.5 µM)
inactive: MAPK1 = 0 | MAPK4 = 0 | MAPKAPK2 = 0 | MKNK1 = 0 | NTRK2 = 0 | NTRK3 = 0 | PAK4 = 0 | PBK 0 | PDGFRB 0 | PDK1 = 0

Nc1cc(Nc2ccc(S(N)(=O)=O)cc2)ncn1 (10 µM)
inactive: MAPK1 = 0 | MAPK4 = 0 | MAPKAPK2 = 0 | MKNK1 = 0 | NTRK2 = 0 | NTRK3 = 0 | PAK4 = 0 | PBK 0 | PDGFRB 0 | PDK1 = 0

CC(C)=CC[C@H](O)C1=CC(=O)c2c(O)ccc(O)c2C1=O [(-)-Alkannin] (2.5 µM)
inactive: MAPK1 = 0 | MAPK4 = 0 | MAPKAPK2 = 0 | MKNK1 = 0 | NTRK2 = 0 | NTRK3 = 0 | PAK4 = 0 | PBK 0 | PDGFRB 0 | PDK1 = 0

CCn1c(=O)c(-c2ccc(-c3cncs3)cc2Cl)cc2cnc(Nc3ccc(N4CCN(C)CC4)cc3)nc21 (2.5 µM)
inactive: MAPK1 = 0 | MAPK4 = 0 | MAPKAPK2 = 0 | MKNK1 = 0 | NTRK2 = 0 | NTRK3 = 0 | PAK4 = 0 | PBK 0 | PDGFRB 0 | PDK1 = 0

CCn1c(-c2nonc2N)nc2cnc(Oc3cccc(NC(=O)c4ccc(OCCN5CCOCC5)cc4)c3)cc21 (10 µM)
inactive: MAPK1 = 0 | MAPK4 = 0 | MAPKAPK2 = 0 | MKNK1 = 0 | NTRK2 = 0 | NTRK3 = 0 | PAK4 = 0 | PBK 0 | PDGFRB 0 | PDK1 = 0

Cc1ccc(Oc2nc3cc(-c4ccc5c(ccn5C)c4)c(Cl)cc3[nH]2)cc1C(=O)O (10 µM)
inactive: MAPK1 = 0 | MAPK4 = 0 | MAPKAPK2 = 0 | MKNK1 = 0 | NTRK2 = 0 | NTRK3 = 0 | PAK4 = 0 | PBK 0 | PDGFRB 0 | PDK1 = 0

Cn1nccc1Nc1nccc(-c2cc3c(s2)C(C)(C)N(CCN2CCOCC2)C3=O)n1 (10 µM)
inactive: MAPK1 = 0 | MAPK4 = 0 | MAPKAPK2 = 0 | MKNK1 = 0 | NTRK2 = 0 | NTRK3 = 0 | PAK4 = 0 | PBK 0 | PDGFRB 0 | PDK1 = 0

C=CC(=O)Nc1cc2c(Nc3ccc(OCc4ccccn4)c(Cl)c3)ncnc2cc1OCCN1CCOCC1 (10 µM)
inactive: MAPK1 = 0 | MAPK4 = 0 | MAPKAPK2 = 0 | MKNK1 = 0 | NTRK2 = 0 | NTRK3 = 0 | PAK4 = 0 | PBK 0 | PDGFRB 0 | PDK1 = 0

CNCc1ccccc1-c1csc([C@@H](C)Nc2nc(C)nc3cc(OC)c(OC)cc23)c1 (2.5 µM)
inactive: MAPK1 = 0 | MAPK4 = 0 | MAPKAPK2 = 0 | MKNK1 = 0 | NTRK2 = 0 | NTRK3 = 0 | PAK4 = 0 | PBK 0 | PDGFRB 0 | PDK1 = 0

C#CCN(C)C(=O)CCNc1nc(N2CCN(C(=O)C=C)CC2)c2cc(Cl)c(-c3c(O)cccc3F)c(F)c2n1 [ARS-1323-alkyne] (2.5 µM)
inactive: MAPK1 = 0 | MAPK4 = 0 | MAPKAPK2 = 0 | MKNK1 = 0 | NTRK2 = 0 | NTRK3 = 0 | PAK4 = 0 | PBK 0 | PDGFRB 0 | PDK1 = 0

O=C(Nc1ccc2[nH]nc(-c3ccncc3)c2c1)[C@@H]1CCN(CC(=O)N2CCN(c3ccc(-c4ncccn4)cc3)CC2)C1 (2.5 µM)
inactive: MAPK1 = 0 | MAPK4 = 0 | MAPKAPK2 = 0 | MKNK1 = 0 | NTRK2 = 0 | NTRK3 = 0 | PAK4 = 0 | PBK 0 | PDGFRB 0 | PDK1 = 0

C=CC(=O)Nc1cccc(C)c1Nc1ncc2cc(-c3c(Cl)c(OC)cc(OC)c3Cl)ccc2n1 (2.5 µM)
inactive: MAPK1 = 0 | MAPK4 = 0 | MAPKAPK2 = 0 | MKNK1 = 0 | NTRK2 = 0 | NTRK3 = 0 | PAK4 = 0 | PBK 0 | PDGFRB 0 | PDK1 = 0

COc1ccc(C2CC(c3ccccc3)=NN2c2ccc(S(N)(=O)=O)cc2)cc1 (stereo not given) (10 µM)
inactive: MAPK1 = 0 | MAPK4 = 0 | MAPKAPK2 = 0 | MKNK1 = 0 | NTRK2 = 0 | NTRK3 = 0 | PAK4 = 0 | PBK 0 | PDGFRB 0 | PDK1 = 0

C=C(C)C(=O)Nc1cccc(-c2ncnc3[nH]cc(C(=O)OCC)c23)c1 (10 µM)
inactive: MAPK1 = 0 | MAPK4 = 0 | MAPKAPK2 = 0 | MKNK1 = 0 | NTRK2 = 0 | NTRK3 = 0 | PAK4 = 0 | PBK 0 | PDGFRB 0 | PDK1 = 0

Nc1ncnc2c1c(-c1ccc(Oc3ccccc3)cc1)nn2C1CCCNC1 (racemic) (2.5 µM)
inactive: MAPK1 = 0 | MAPK4 = 0 | MAPKAPK2 = 0 | MKNK1 = 0 | NTRK2 = 0 | NTRK3 = 0 | PAK4 = 0 | PBK 0 | PDGFRB 0 | PDK1 = 0

COCCO[C@@H]1[C@H](O)[C@@H](CO)O[C@H]1n1cnc2c(=O)[nH]c(N)nc21 [2′-O-(2-Methoxyethyl)guanosine] (10 µM)
inactive: MAPK1 = 0 | MAPK4 = 0 | MAPKAPK2 = 0 | MKNK1 = 0 | NTRK2 = 0 | NTRK3 = 0 | PAK4 = 0 | PBK 0 | PDGFRB 0 | PDK1 = 0

COc1ncc(-c2nc(N3CCOCC3)nc3c(CN4CCC(C(C)(C)O)CC4)cc(F)cc23)cc1NS(C)(=O)=O [Linperlisib] (10 µM)
inactive: MAPK1 = 0 | MAPK4 = 0 | MAPKAPK2 = 0 | MKNK1 = 0 | NTRK2 = 0 | NTRK3 = 0 | PAK4 = 0 | PBK 0 | PDGFRB 0 | PDK1 = 0

Already shown: 2 of the compounds above.
COCCO[C@@H]1[C@H](O)[C@@H](CO)O[C@H]1n1cnc2c(=O)[nH]c(N)nc21 [2′-O-(2-Methoxyethyl)guanosine] (10 µM)
inactive: MAPK1 = 0 | MAPK4 = 0 | MAPKAPK2 = 0 | MKNK1 = 0 | NTRK2 = 0 | NTRK3 = 0 | PAK4 = 0 | PBK 0 | PDGFRB 0 | PDK1 = 0

COc1ncc(-c2nc(N3CCOCC3)nc3c(CN4CCC(C(C)(C)O)CC4)cc(F)cc23)cc1NS(C)(=O)=O [Linperlisib] (10 µM)
inactive: MAPK1 = 0 | MAPK4 = 0 | MAPKAPK2 = 0 | MKNK1 = 0 | NTRK2 = 0 | NTRK3 = 0 | PAK4 = 0 | PBK 0 | PDGFRB 0 | PDK1 = 0

The list goes on:

O=C1NC(=O)/C(=C/c2ccc3c(c2)OC(F)(F)O3)S1 (10 µM)
inactive: MAPK1 = 0 | MAPK4 = 0 | MAPKAPK2 = 0 | MKNK1 = 0 | NTRK2 = 0 | NTRK3 = 0 | PAK4 = 0 | PBK 0 | PDGFRB 0 | PDK1 = 0

CCc1cc(O)c(F)cc1-c1ccc2c(-c3nc4c([nH]3)CN(C3CCN(C)CC3)CC4)n[nH]c2c1 [JAK-IN-5 (hydrochloride)] (2 µM)
inactive: MAPK1 = 0 | MAPK4 = 0 | MAPKAPK2 = 0 | MKNK1 = 0 | NTRK2 = 0 | NTRK3 = 0 | PAK4 = 0 | PBK 0 | PDGFRB 0 | PDK1 = 0

Cc1cc2cc(Nc3ccnc(Nc4ccc5[nH]c(C)cc5c4)n3)ccc2[nH]1 (2.5 µM)
inactive: MAPK1 = 0 | MAPK4 = 0 | MAPKAPK2 = 0 | MKNK1 = 0 | NTRK2 = 0 | NTRK3 = 0 | PAK4 = 0 | PBK 0 | PDGFRB 0 | PDK1 = 0

CS(=O)(=O)c1ccc(-c2noc(C(F)(F)F)c2-c2ccccc2)cc1 (10 µM)
inactive: MAPK1 = 0 | MAPK4 = 0 | MAPKAPK2 = 0 | MKNK1 = 0 | NTRK2 = 0 | NTRK3 = 0 | PAK4 = 0 | PBK 0 | PDGFRB 0 | PDK1 = 0

O=C1Nc2nc(-c3c(O)cccc3OCC3CC3)cc([C@@H]3CCCNC3)c2CO1 [Bay 65-1942 (hydrochloride)] (10 µM)
inactive: MAPK1 = 0 | MAPK4 = 0 | MAPKAPK2 = 0 | MKNK1 = 0 | NTRK2 = 0 | NTRK3 = 0 | PAK4 = 0 | PBK 0 | PDGFRB 0 | PDK1 = 0

C[C@@H](c1ccc2nccn2c1)n1nnc2ncc(-c3cnn(C)c3)nc21 [Savolitinib] (10 µM)
inactive: MAPK1 = 0 | MAPK4 = 0 | MAPKAPK2 = 0 | MKNK1 = 0 | NTRK2 = 0 | NTRK3 = 0 | PAK4 = 0 | PBK 0 | PDGFRB 0 | PDK1 = 0
